{"sequences": {"note": "Amino acid sequences for entries named in this document (tags omitted). A change or cut given only in a name is not applied to a line headed by its entry.", "UniProt O18924": "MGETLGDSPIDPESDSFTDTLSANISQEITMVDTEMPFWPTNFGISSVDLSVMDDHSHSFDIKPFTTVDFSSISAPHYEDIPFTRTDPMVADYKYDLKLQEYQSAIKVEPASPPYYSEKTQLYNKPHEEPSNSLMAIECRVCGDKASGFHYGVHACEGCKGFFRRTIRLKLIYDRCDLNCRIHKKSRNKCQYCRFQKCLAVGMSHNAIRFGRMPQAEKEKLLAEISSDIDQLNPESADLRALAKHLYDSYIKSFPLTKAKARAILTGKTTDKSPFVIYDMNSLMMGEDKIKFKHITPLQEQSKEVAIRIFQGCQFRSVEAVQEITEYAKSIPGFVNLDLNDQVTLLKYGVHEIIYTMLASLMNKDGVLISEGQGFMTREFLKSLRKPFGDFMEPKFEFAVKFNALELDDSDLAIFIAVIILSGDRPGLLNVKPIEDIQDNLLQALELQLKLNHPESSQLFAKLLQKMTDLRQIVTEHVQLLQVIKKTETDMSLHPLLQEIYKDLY", "UniProt Q15648": "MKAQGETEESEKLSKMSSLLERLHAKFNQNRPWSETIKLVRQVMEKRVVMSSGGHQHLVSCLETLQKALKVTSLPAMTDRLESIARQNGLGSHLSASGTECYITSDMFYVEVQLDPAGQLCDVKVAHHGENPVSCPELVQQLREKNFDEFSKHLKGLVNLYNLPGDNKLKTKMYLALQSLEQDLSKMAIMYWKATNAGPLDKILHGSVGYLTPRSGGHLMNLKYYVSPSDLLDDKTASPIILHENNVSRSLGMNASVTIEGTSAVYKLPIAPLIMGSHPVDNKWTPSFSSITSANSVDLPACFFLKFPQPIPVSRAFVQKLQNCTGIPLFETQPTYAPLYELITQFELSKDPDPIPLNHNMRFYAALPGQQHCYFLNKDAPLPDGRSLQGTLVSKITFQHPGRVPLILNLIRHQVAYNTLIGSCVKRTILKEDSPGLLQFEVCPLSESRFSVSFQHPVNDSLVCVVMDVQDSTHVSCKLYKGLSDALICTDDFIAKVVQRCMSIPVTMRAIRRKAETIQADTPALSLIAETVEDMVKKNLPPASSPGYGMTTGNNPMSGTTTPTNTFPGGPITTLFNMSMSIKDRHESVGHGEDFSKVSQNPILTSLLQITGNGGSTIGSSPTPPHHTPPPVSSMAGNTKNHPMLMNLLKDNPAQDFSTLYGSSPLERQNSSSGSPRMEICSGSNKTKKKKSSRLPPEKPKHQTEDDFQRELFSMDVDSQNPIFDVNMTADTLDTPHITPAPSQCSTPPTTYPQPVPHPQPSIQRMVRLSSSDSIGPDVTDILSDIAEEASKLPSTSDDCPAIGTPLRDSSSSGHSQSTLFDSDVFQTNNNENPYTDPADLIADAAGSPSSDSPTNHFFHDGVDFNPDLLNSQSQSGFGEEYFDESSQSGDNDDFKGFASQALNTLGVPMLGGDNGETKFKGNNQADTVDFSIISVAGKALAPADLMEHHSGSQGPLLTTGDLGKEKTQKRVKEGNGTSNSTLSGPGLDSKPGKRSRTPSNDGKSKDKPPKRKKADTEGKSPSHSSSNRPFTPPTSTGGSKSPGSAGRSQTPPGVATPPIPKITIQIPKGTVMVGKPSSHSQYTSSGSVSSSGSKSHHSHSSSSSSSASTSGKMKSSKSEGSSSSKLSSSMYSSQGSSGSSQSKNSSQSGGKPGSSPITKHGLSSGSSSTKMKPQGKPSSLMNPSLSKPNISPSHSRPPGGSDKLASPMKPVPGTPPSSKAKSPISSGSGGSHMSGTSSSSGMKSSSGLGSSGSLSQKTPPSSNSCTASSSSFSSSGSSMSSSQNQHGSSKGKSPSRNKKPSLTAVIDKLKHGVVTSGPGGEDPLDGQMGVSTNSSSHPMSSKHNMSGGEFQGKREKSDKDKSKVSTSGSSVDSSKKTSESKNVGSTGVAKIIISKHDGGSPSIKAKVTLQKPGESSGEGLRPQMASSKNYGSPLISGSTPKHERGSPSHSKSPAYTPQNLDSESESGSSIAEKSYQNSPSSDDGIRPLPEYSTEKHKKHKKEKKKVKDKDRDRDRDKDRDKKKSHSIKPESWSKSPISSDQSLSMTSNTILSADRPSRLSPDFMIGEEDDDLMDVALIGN"}, "source": "patent US11896678B2", "about": "“Compositions and methods for treatment of peroxisome proliferator-activated receptor gamma (PPARG) activated cancer” (THE BROAD INSTITUTE, INC., priority 2017, dated 2024)", "biological_target": "Terbium-labeled PPARG ligand binding domain (PPARG-LBD) (Macaca mulatta (Rhesus macaque)) (UniProt O18924)", "experiment": "TR-FRET coactivator assay: PPARG ligand-binding domain and fluorescently-labeled TRAP220/MED1 peptide, with full agonists", "note": "No constants are given. Whether binding was seen depends on the method and setting. Some binding calls cover weakened binding; strength is not graded here.", "data": [{"binder": "NTKNHPMLMNLLKDNPAQD (peptide, UniProt Q15648 638-656, looked up, fluorescein-labeled (site not stated))", "note": "[fluorescently-labeled TRAP220 (MED1) coactivator peptide]", "values": [{"measurement": "binding", "result": "binds"}]}]}
